Measured values: article PMC12402178
No constants are given. Whether binding was seen depends on the method and setting. Sequences can lack the tags named with a protein.

Biological target: T1, Anillin-GFP (full-length human anillin, isoform 2, 1087 amino acids) (human), Q9NQW6
T1 chain: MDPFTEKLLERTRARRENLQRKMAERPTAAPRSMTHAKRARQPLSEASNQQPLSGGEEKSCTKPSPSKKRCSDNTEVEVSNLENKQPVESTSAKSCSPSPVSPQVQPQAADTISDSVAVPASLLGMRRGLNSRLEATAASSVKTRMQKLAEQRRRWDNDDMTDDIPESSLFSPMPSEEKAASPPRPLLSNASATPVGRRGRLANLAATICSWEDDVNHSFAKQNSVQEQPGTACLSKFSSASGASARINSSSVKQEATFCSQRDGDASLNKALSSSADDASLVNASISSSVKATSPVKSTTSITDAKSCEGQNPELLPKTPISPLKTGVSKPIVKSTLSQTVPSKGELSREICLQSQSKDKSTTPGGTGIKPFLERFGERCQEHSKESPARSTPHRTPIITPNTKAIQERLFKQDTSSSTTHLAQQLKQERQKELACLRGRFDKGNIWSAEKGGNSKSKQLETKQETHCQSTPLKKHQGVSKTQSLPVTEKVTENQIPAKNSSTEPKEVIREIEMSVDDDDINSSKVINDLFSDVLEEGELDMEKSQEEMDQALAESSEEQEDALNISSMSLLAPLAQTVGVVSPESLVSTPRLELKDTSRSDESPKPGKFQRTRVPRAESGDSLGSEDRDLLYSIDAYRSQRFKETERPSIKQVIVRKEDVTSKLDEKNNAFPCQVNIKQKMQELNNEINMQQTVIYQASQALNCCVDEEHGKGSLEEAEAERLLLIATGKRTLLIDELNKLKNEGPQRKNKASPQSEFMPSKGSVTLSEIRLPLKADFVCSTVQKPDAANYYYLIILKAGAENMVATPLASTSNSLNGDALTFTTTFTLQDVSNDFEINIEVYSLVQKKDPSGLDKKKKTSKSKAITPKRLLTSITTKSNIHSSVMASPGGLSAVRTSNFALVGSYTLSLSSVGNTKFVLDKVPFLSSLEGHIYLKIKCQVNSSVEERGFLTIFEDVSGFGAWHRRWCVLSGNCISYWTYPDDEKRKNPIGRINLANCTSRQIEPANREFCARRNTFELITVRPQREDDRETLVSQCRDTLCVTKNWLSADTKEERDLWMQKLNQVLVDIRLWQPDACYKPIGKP
Assay: mass photometry (iSCAT); anillin alone in solution at 5, 15 or 50 nM; both purified
Details: remark: other sources report otherwise

B1: Anillin-GFP (full-length human anillin, isoform 2, 1087 amino acids), Q9NQW6-2 1-1087 (protein)
chain: T1 chain
For B1, the binding was “no binding (tested: 5, 15 or 50 nM)”.
